The values that follow come from the supplement of paper PMC11348887.

Structures are written as SMILES. Where a name gives a salt, the structure may show the parent alone. The list shows a part of the results. Most entries show no effect beyond the scatter of the controls.

This assay deals with hPSC-derived cortical neurons (WA09). Put plainly: total neurite length per nucleus (MAP2) z-score; higher = more neurite growth. The note with it: 5 µM; treatment: days 7-14 after plating, readout day 21.
For `CCOc1ccn(-c2ccc(F)cc2)c(=O)c1C(=O)Nc1ccc(Oc2ccnc(N)c2Cl)c(F)c1`, the “total neurite length per nucleus (z-score)” value was 0.6.

As to `Cc1c(-c2ccccc2)oc2c(C(=O)OCCN3CCCCC3)cccc2c1=O` [Flavoxate HCl], the “total neurite length per nucleus (z-score)” value is -0.754.

For the compound `C[C@H](CCC(=O)O)[C@H]1CC[C@H]2[C@@H]3C(=O)C[C@@H]4CC(=O)CC[C@]4(C)[C@H]3CC(=O)[C@]12C` [Dehydrocholic acid], the “total neurite length per nucleus (z-score)” value is -0.179.

For the compound `CNC(=O)c1cc(Oc2ccc(NC(=O)Nc3cc(C(C)(C)C)nn3-c3ccc4ncccc4c3)c(F)c2)ccn1` [DCC-2036 (Rebastinib)], the “total neurite length per nucleus (z-score)” value is -0.142.

For `Cc1cnc(Nc2ccc(N3CCN(C)CC3)cc2)nc1Nc1cccc(S(=O)(=O)NC(C)(C)C)c1`, the “total neurite length per nucleus (z-score)” value amounted to 0.182.

Consider `CN(C)CCC(c1ccc(Cl)cc1)c1ccccn1` (stereo not drawn) [Chlorpheniramine Maleate], for which the “total neurite length per nucleus (z-score)” value was determined as 0.525.

With `O=C(NC1CCOCC1)c1ccc(-c2cc(-c3c[nH]nc3-c3ccccn3)ccn2)cc1`, the “total neurite length per nucleus (z-score)” value was -3.41.

Consider `C[C@H](CCC(=O)O)[C@H]1CC[C@H]2[C@@H]3[C@@H](O)C[C@@H]4C[C@H](O)CC[C@]4(C)[C@H]3CC[C@]12C` [Ursodiol], for which the “total neurite length per nucleus (z-score)” value is -0.779.

Consider `CCC/N=C1\S/C(=C\c2ccc(OC[C@H](O)CO)c(Cl)c2)C(=O)N1c1ccccc1C` [Ponesimod], for which the “total neurite length per nucleus (z-score)” value is -1.49.

As to `OC[C@H]1O[C@@H](Oc2ccc(O)cc2)[C@H](O)[C@@H](O)[C@@H]1O` [Arbutin], the “total neurite length per nucleus (z-score)” value was 0.146.

Turning to `CCCCc1ncc(/C=C(\Cc2cccs2)C(=O)O)n1Cc1ccc(C(=O)O)cc1` [Eprosartan Mesylate], the “total neurite length per nucleus (z-score)” value is -0.411.

In the case of `CCn1cc(-c2ccnc3[nH]c(-c4cccc(CN(C)C)c4)cc23)c(-c2ccc(NC(=O)N(C)C)cc2)n1`, the “total neurite length per nucleus (z-score)” value is -1.89.

Consider `CCOC(=O)[C@@H](N)Cc1ccc(-c2cc(O[C@H](c3ccc(Cl)cc3-n3ccc(C)n3)C(F)(F)F)nc(N)n2)cc1` [Telotristat Etiprate (LX 1606 Hippurate)], for which the “total neurite length per nucleus (z-score)” value is 0.922.

As for `COc1ccc(S(=O)(=O)Nc2cccnc2Nc2ccc(O)cc2)cc1`, the “total neurite length per nucleus (z-score)” value is -1.82.

As for `CC(C)c1cnn2c(NCc3ccccc3)cc(NCCCCCCN)nc12`, the “total neurite length per nucleus (z-score)” value is -0.362.

For the compound `Cn1cc(-c2cnn3c(N)c(Br)c([C@@H]4CCCNC4)nc23)cn1`, the “total neurite length per nucleus (z-score)” value stood at 1.94.

`C[C@@H]1COC(Nc2ccc3ncnc(Nc4ccc(OCc5nccs5)c(Cl)c4)c3c2)=N1` [Varlitinib]: the “total neurite length per nucleus (z-score)” value was 0.117.

With `COc1ccc(-c2coc3cc(O)cc(O)c3c2=O)cc1` [Biochanin A], the “total neurite length per nucleus (z-score)” value is -0.0651.

As for `CC(C)(O)c1ccccc1CC[C@@H](SCC1(CC(=O)O)CC1)c1cccc(/C=C/c2ccc3ccc(Cl)cc3n2)c1` [Montelukast Sodium], the “total neurite length per nucleus (z-score)” value is 0.52.

On to `CN(C)CCOc1ccc(-c2nc(-c3ccncc3)c(-c3ccc4c(c3)CC/C4=N\O)[nH]2)cc1`, for which the “total neurite length per nucleus (z-score)” value was -5.85.

As to `CC(C)(C)NC(=O)[C@H]1CC[C@H]2[C@@H]3CC[C@H]4NC(=O)C=C[C@]4(C)[C@H]3CC[C@]12C` [Finasteride], the “total neurite length per nucleus (z-score)” value was -0.0128.

Take `CC(C)(Cc1ccc2ccccc2c1)NC[C@@H](O)COc1cccc(Cl)c1C#N`: the “total neurite length per nucleus (z-score)” value was -1.05.

On to `CCOC(=O)c1c(CSc2ccccc2)n(C)c2cc(Br)c(O)c(CN(C)C)c12` [Arbidol HCl], for which the “total neurite length per nucleus (z-score)” value is -0.101.

Take `CO/N=C(\C(=O)N[C@@H]1C(=O)N2C(C(=O)O)=C(CSC(=O)c3ccco3)CS[C@H]12)c1csc(N)n1` [Ceftiofur HCl]: the “total neurite length per nucleus (z-score)” value is -0.754.

With `O=C(CCCN1CCC(O)(c2ccc(Cl)cc2)CC1)c1ccc(F)cc1` [Haloperidol], the “total neurite length per nucleus (z-score)” value was -1.28.

Regarding `C#Cc1cccc(Nc2ncnc3cc(OC)c(OCCCCCCC(=O)NO)cc23)c1`, the “total neurite length per nucleus (z-score)” value was -3.14.

Take `Cc1onc(-c2ccccc2Cl)c1C(=O)N[C@@H]1C(=O)N2[C@@H]1SC(C)(C)[C@@H]2C(=O)O` [Cloxacillin Sodium]: the “total neurite length per nucleus (z-score)” value came to 0.303.

For the compound `COc1cc2nc(N3CCN(C(=O)C4COc5ccccc5O4)CC3)nc(N)c2cc1OC` (stereo not drawn) [Doxazosin Mesylate], the “total neurite length per nucleus (z-score)” value is -0.509.
